Measured values from patent US20160252527A1 (Takeda / Millennium, published 2016).
Results are given in words; binding and its absence hold for the method and conditions named. Some entries that bind do so weakly or less than the wild type.

Chains of the proteins cited; added tags and fusions are not shown. Residues count along the entry.
UniProt P03952, residues 20-638: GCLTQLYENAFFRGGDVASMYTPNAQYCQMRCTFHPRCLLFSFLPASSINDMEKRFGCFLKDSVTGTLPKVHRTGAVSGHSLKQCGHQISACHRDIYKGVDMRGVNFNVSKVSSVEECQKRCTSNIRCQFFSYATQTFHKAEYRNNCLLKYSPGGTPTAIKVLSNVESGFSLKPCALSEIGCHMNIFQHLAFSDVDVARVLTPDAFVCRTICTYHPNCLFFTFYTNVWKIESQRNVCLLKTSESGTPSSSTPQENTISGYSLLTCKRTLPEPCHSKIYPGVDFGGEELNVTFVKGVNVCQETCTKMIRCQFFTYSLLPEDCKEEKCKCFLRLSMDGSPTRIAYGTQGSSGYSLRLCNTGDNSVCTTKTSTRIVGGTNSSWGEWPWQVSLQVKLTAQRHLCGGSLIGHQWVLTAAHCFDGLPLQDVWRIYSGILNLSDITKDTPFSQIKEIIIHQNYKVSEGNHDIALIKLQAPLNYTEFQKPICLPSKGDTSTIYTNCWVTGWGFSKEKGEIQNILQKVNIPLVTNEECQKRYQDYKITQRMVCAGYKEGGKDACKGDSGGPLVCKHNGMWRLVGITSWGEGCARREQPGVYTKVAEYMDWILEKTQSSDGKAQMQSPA

How the values were obtained:
[1] = molecular target: T1, human plasma kallikrein (pKal) (human, UniProt P03952 20-638); assay: complex formation, purified by cation exchange chromatography
[2] = molecular target: T1, human plasma kallikrein (pKal); assay: sandwich ELISA of complexes in normal human plasma activated with dextran sulfate
[3] = molecular target: T1, human plasma kallikrein (pKal); assay: covalent complex purified by cation exchange chromatography (Capto S), fractions on SDS-PAGE
[4] = molecular target: T1, human plasma kallikrein (pKal); assay: ELISA for the C1INH-pKal complex in normal human plasma with and without in vitro activation by dextran sulfate
[5] = molecular target: T1, human plasma kallikrein (pKal); assay: complex formation, purified by size exclusion chromatography
[6] = molecular target: T1, human plasma kallikrein (pKal); assay: covalent complex purified by size exclusion chromatography (Superdex 200), fractions on SDS-PAGE
[7] = molecular target: T1, human plasma kallikrein (pKal); assay: ELISA for the α2M-pKal complex in normal human plasma with and without in vitro activation by dextran sulfate

binding [1]	binding [2]	binding [3]	binding [4]	binding [5]	binding [6]	binding [7]	Binder
binds	binds	binds	binds				C1 inhibitor (C1-INH) (protein, UniProt P05155 23-500, looked up) NPNATSSSSQDPESLQDRGEGKVATTVISKMLFVEPILEVSSLPTTNSTTNSATKITANTTDEPTTQPTTEPTTQPTIQPTQPTTQLPTDSPTQPTTGSFCPGPVTLCSDLESHSTEAVLGDALVDFSLKLYHAFSAMKKVETNMAFSPFSIASLLTQVLLGAGENTKTNLESILSYPKDFTCVHQALKGFTTKGVTSVSQIFHSPDLAIRDTFVNASRTLYSSSPRVLSNNSDANLELINTWVAKNTNNKISRLLDSLPSDTRLVLLNAIYLSAKWKTTFDPKKTRMEPFHFKNSVIKVPMMNSKKYPVAHFIDQTLKAKVGQLQLSHNLSLVILVPQNLKHRLEDMEQALSPSVFKAIMEKLEMSKFQPTLLTLPRIKVTTSQDMLSIMEKLEFFDFSYDLNLCGLTEDPDLQVSAMQHQTVLELTETGVEAAAASAISVARTLLVFEVQQPFLFVLWDQQHKFPVFMGRVYDPRA
	binds			binds	binds	binds	alpha 2 macroglobulin (α2M) (other, UniProt P01023 24-1474, looked up) SVSGKPQYMVLVPSLLHTETTEKGCVLLSYLNETVTVSASLESVRGNRSLFTDLEAENDVLHCVAFAVPKSSSNEEVMFLTVQVKGPTQEFKKRTTVMVKNEDSLVFVQTDKSIYKPGQTVKFRVVSMDENFHPLNELIPLVYIQDPKGNRIAQWQSFQLEGGLKQFSFPLSSEPFQGSYKVVVQKKSGGRTEHPFTVEEFVLPKFEVQVTVPKIITILEEEMNVSVCGLYTYGKPVPGHVTVSICRKYSDASDCHGEDSQAFCEKFSGQLNSHGCFYQQVKTKVFQLKRKEYEMKLHTEAQIQEEGTVVELTGRQSSEITRTITKLSFVKVDSHFRQGIPFFGQVRLVDGKGVPIPNKVIFIRGNEANYYSNATTDEHGLVQFSINTTNVMGTSLTVRVNYKDRSPCYGYQWVSEEHEEAHHTAYLVFSPSKSFVHLEPMSHELPCGHTQTVQAHYILNGGTLLGLKKLSFYYLIMAKGGIVRTGTHGLLVKQEDMKGHFSISIPVKSDIAPVARLLIYAVLPTGDVIGDSAKYDVENCLANKVDLSFSPSQSLPASHAHLRVTAAPQSVCALRAVDQSVLLMKPDAELSASSVYNLLPEKDLTGFPGPLNDQDNEDCINRHNVYINGITYTPVSSTNEKDMYSFLEDMGLKAFTNSKIRKPKMCPQLQQYEMHGPEGLRVGFYESDVMGRGHARLVHVEEPHTETVRKYFPETWIWDLVVVNSAGVAEVGVTVPDTITEWKAGAFCLSEDAGLGISSTASLRAFQPFFVELTMPYSVIRGEAFTLKATVLNYLPKCIRVSVQLEASPAFLAVPVEKEQAPHCICANGRQTVSWAVTPKSLGNVNFTVSAEALESQELCGTEVPSVPEHGRKDTVIKPLLVEPEGLEKETTFNSLLCPSGGEVSEELSLKLPPNVVEESARASVSVLGDILGSAMQNTQNLLQMPYGCGEQNMVLFAPNIYVLDYLNETQQLTPEIKSKAIGYLNTGYQRQLNYKHYDGSYSTFGERYGRNQGNTWLTAFVLKTFAQARAYIFIDEAHITQALIWLSQRQKDNGCFRSSGSLLNNAIKGGVEDEVTLSAYITIALLEIPLTVTHPVVRNALFCLESAWKTAQEGDHGSHVYTKALLAYAFALAGNQDKRKEVLKSLNEEAVKKDNSVHWERPQKPKAPVGHFYEPQAPSAEVEMTSYVLLAYLTAQPAPTSEDLTSATNIVKWITKQQNAQGGFSSTQDTVVALHALSKYGAATFTRTGKAAQVTIQSSGTFSSKFQVDNNNRLLLQQVSLPELPGEYSMKVTGEGCVYLQTSLKYNILPEKEEFPFALGVQTLPQTCDEPKAHTSFQISLSVSYTGSRSASNMAIVDVKMVSGFIPLKPTVKMLERSNHVSRTEVSSNHVLIYLDKVSNQTLSLFFTVLQDVPVRDLKPAIVKVYDYYETDEFAIAEYNAPCSKDLGNA
